This is one part of the list. Many values rest on one well or one pass, so single values are uncertain.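 Cells were imaged in 1,536-well plates, and nuclei stained with an antibody against cleaved PARP were counted against all DNA-stained nuclei to give the apoptosis fraction. Screening doses were chosen to leave most cells alive, and resting and induced cleaved-PARP levels differ strongly between cell lines.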
Tests used:
Assay in all cases: cleaved PARP positive nuclei fraction relative to DMSO control; melanoma cells; higher = more apoptosis
Conditions in all cases: library dose: low library concentration; 72 h
[1] = system: 501Mel
[2] = system: A101D
[3] = system: A2058
[4] = system: C32
[5] = system: CBRC008 (line from a melanoma biopsy)
[6] = system: CBRC014 (line from a melanoma biopsy)
[7] = system: CBRC016 (line from a melanoma biopsy)
[8] = system: CBRC017 (line from a melanoma biopsy)
[9] = system: COLO792
[10] = system: COLO800
[11] = system: COLO829
[12] = system: G361
[13] = system: IPC-298
[14] = system: IST-MEL1
[15] = system: LB2518-MEL
[16] = system: LOXIMVI

Structure (SMILES)	cleaved PARP positive nuclei fraction [1] [%]	cleaved PARP positive nuclei fraction [2] [%]	cleaved PARP positive nuclei fraction [3] [%]	cleaved PARP positive nuclei fraction [4] [%]	cleaved PARP positive nuclei fraction [5] [%]	cleaved PARP positive nuclei fraction [6] [%]	cleaved PARP positive nuclei fraction [7] [%]	cleaved PARP positive nuclei fraction [8] [%]	cleaved PARP positive nuclei fraction [9] [%]	cleaved PARP positive nuclei fraction [10] [%]	cleaved PARP positive nuclei fraction [11] [%]	cleaved PARP positive nuclei fraction [12] [%]	cleaved PARP positive nuclei fraction [13] [%]	cleaved PARP positive nuclei fraction [14] [%]	cleaved PARP positive nuclei fraction [15] [%]	cleaved PARP positive nuclei fraction [16] [%]
CO[C@H]1C[C@@H]2CC[C@@H](C)[C@@](O)(O2)C(=O)C(=O)N2CCCC[C@H]2C(=O)O[C@H]([C@H](C)C[C@@H]2CC[C@@H](OCCO)[C@H](OC)C2)CC(=O)[C@H](C)/C=C(\C)[C@@H](O)[C@@H](OC)C(=O)[C@H](C)C[C@H](C)/C=C/C=C/C=C/1C [everolimus] + N#Cc1c(O)c2c(-c3ccc(-c4ccccc4O)cc3)csc2[nH]c1=O [A769662] (first compound 0.02 µM, partner dose 2 µM)	98.5	30	71.8	36	141	115	63.1	98.8	43.8	97.5	226	169	62.4	112	105	124
C=C(c1ccc(C(=O)O)cc1)c1cc2c(cc1C)C(C)(C)CCC2(C)C [Bexarotene] + O=C(Nc1ccccc1)c1cc([N+](=O)[O-])ccc1Cl [GW9662] (first compound 2 µM, partner dose 2 µM)	118	29.1	185	91.7	145	223	268	132	135	83.1	111	203	174	59.2	105	82.6
CCCS(=O)(=O)Nc1ccc(F)c(C(=O)c2c[nH]c3ncc(Cl)cc23)c1F + COc1ccc2c(c1)CCC1C2CCC2(C)C(NCCCCCCN3C(=O)C=CC3=O)CCC12 [U73122] (first compound 0.08 µM, partner dose 0.4 µM)	33.7	19.5	100	188	30	122	41.6	58	115	221	46.4	180	47.8	221	64.7	40.9
C[C@@H](Oc1cc(-c2cnn(C3CCNCC3)c2)cnc1N)c1c(Cl)ccc(F)c1Cl [Crizotinib] + COc1ccc(COc2ccc(Cc3cnc(N)nc3N)cc2OC)cc1 [GW2580] (first compound 0.2 µM, partner dose 1 µM)	31.6	16.7	136	39.4	65.1	85.6	68.1	78.7	87.4	88.8	36.1	64.5	125	91.3	36.8	92.9
C=C(c1ccc(C(=O)O)cc1)c1cc2c(cc1C)C(C)(C)CCC2(C)C [Bexarotene] + O=c1cc(-c2cccc3c2Sc2ccccc2S3)oc(N2CCOCC2)c1 [KU55933] (first compound 2 µM, partner dose 1 µM)	108	7.4	162	227	371	98.7	74	111	55.6	23.3	157	64.6	57.1	110	35.5	109
Nc1nc(F)nc2c1ncn2[C@@H]1O[C@H](CO)[C@@H](O)[C@@H]1O [fludarabine] + N#Cc1c(O)c2c(-c3ccc(-c4ccccc4O)cc3)csc2[nH]c1=O [A769662] (first compound 0.2 µM, partner dose 2 µM)	889	45.1	64.2	40.9	154	92.8	145	90.6	203	50.4	62.5	108	142	126	72.5	81.5
Cn1c(=O)n(-c2ccc(C(C)(C)C#N)cc2)c2c3cc(-c4cnc5ccccc5c4)ccc3ncc21 + O=c1cc(-c2cccc3c2Sc2ccccc2S3)oc(N2CCOCC2)c1 [KU55933] (first compound 0.004 µM, partner dose 1 µM)	70.3	53.3	53.1	113	47.2	97.5	32.4	87.4	113	36.5	342	112	277	62.7	36.9	165
O=C(O)c1ccc2c(c1)nc(Nc1cccc(Cl)c1)c1ccncc12 + CCc1ccc(CCOc2ccc(CC3SC(=O)NC3=O)cc2)nc1 [pioglitazone] (first compound 0.4 µM, partner dose 2 µM)	112	8.49	55.7	141	75.2	164	199	258	191	196	178	89	44.8	96.6	62.4	135
Nc1ncn([C@H]2C[C@H](O)[C@@H](CO)O2)c(=O)n1 [decitabine] + c1cc(-c2cnn3cc(-c4ccc(OCCN5CCCCC5)cc4)cnc23)ccn1 [Dorsomorphin] (first compound 0.1 µM, partner dose 0.4 µM)	27.4	39	28.3	91.2	51.3	108	21.8	193	134	131	137	155	116	209	218	128
CS(=O)(=O)CCNCc1ccc(-c2ccc3ncnc(Nc4ccc(OCc5cccc(F)c5)c(Cl)c4)c3c2)o1 [lapatinib] + CCN(CC)CCCCNc1ncc2cc(-c3cc(OC)cc(OC)c3)c(NC(=O)NC(C)(C)C)nc2n1 [PD173074] (first compound 0.8 µM, partner dose 0.1 µM)	165	22.1	91.5	46.1	198	108	20.8	123	224	94.3	103	193	95.4	91.5	252	28.8
CCCS(=O)(=O)Nc1ccc(F)c(C(=O)c2c[nH]c3ncc(Cl)cc23)c1F + COc1cc(N2CCC(N3CCN(C)CC3)CC2)ccc1Nc1ncc(Cl)c(Nc2ccccc2S(=O)(=O)C(C)C)n1 [NVP-TAE684] (first compound 0.08 µM, partner dose 0.08 µM)	117	15.6	145	128	32.1	116	63.3	88.2	58.2	133	114	121	50.7	80.2	61.5	737
C[C@@H](Oc1cc(-c2cnn(C3CCNCC3)c2)cnc1N)c1c(Cl)ccc(F)c1Cl [Crizotinib] + O=c1cc(-c2cccc3c2Sc2ccccc2S3)oc(N2CCOCC2)c1 [KU55933] (first compound 0.2 µM, partner dose 1 µM)	52.4	19.9	40.6	97.3	235	77.9	74	69.6	97.4	134	95.2	86.9	91.3	39.8	60.5	43.4
Nc1ncn([C@H]2C[C@H](O)[C@@H](CO)O2)c(=O)n1 [decitabine] + CCc1ccc(CCOc2ccc(CC3SC(=O)NC3=O)cc2)nc1 [pioglitazone] (first compound 0.1 µM, partner dose 2 µM)	72.6	65.2	123	43.7	66.9	115	1130	75.7	47.1	62.2	163	164	159	161	84.2	66.2
Nc1nc(F)nc2c1ncn2[C@@H]1O[C@H](CO)[C@@H](O)[C@@H]1O [fludarabine] + O=c1cc(-c2cccc3c2Sc2ccccc2S3)oc(N2CCOCC2)c1 [KU55933] (first compound 0.2 µM, partner dose 1 µM)	4270	54	63.8	26.9	180	84	88.8	91.9	104	129	82	147	67.8	51.7	116	41.3
O=C(O)[C@@H]1[O][Sb](=[O])([O][Sb]2(=[O])[O][C@H]([C@H](O)CO)[C@H](O)[C@H](C(=O)O)[O]2)[O][C@H]([C@H](O)CO)[C@@H]1O (some centres undefined) [stibogluconate] + c1cc(-c2cnn3cc(-c4ccc(OCCN5CCCCC5)cc4)cnc23)ccn1 [Dorsomorphin] (first compound 2 µM, partner dose 0.4 µM)	138	5.53	111	221	78.5	104	30.3	308	67.4	106	82.8	59.2	94.2	16.7	62.9	70.7
Cn1c(=O)n(-c2ccc(C(C)(C)C#N)cc2)c2c3cc(-c4cnc5ccccc5c4)ccc3ncc21 + O=S(=O)(c1ccccc1)N(CC(F)(F)F)c1ccc(C(O)(C(F)(F)F)C(F)(F)F)cc1 [T0901317] (first compound 0.004 µM, partner dose 1.4 µM)	207	18.5	61.3	262	152	351	79.4	93.1	92.8	44.6	98	67.9	73.6	25.7	35.8	149
CNC(=O)c1cc(Oc2ccc(NC(=O)Nc3ccc(Cl)c(C(F)(F)F)c3)cc2)ccn1 [sorafenib] + N#Cc1c(O)c2c(-c3ccc(-c4ccccc4O)cc3)csc2[nH]c1=O [A769662] (first compound 0.4 µM, partner dose 2 µM)	60.8	64.4	53.2	89.2	180	80.4	122	76.8	62	87.9	120	112	98.6	43.1	213	58.7
CN1CCN(c2ccc3nc(-c4c(N)c5c(F)cccc5[nH]c4=O)[nH]c3c2)CC1 [Dovitinib] + O=C(O)C(=O)Nc1sc2c(c1C(=O)O)CCNC2 [TCS401] (first compound 0.1 µM, partner dose 1.66667 µM)	143	20.4	52.4	55.1	106	92.6	23.9	74	85.4	145	156	189	99.3	69.2	39.3	73.4
Nc1ccn([C@@H]2O[C@H](CO)[C@@H](O)C2(F)F)c(=O)n1 [gemcitabine] + Oc1nc(-c2ccc(C(F)(F)F)cc2)nc2c1CSCC2 [XAV939] (first compound 0.0004 µM, partner dose 2 µM)	125	43.2	101	75.4	110	346	89.4	197	169	153	62	156	192	86.6	74.2	61.7

Some entries already given, reduced to cleaved PARP positive nuclei fraction [1] [%], cleaved PARP positive nuclei fraction [3] [%] and cleaved PARP positive nuclei fraction [10] [%].

| Structure (SMILES) | cleaved PARP positive nuclei fraction [1] [%] | cleaved PARP positive nuclei fraction [3] [%] | cleaved PARP positive nuclei fraction [10] [%] |
| --- | --- | --- | --- |
| O=C(O)[C@@H]1[O][Sb](=[O])([O][Sb]2(=[O])[O][C@H]([C@H](O)CO)[C@H](O)[C@H](C(=O)O)[O]2)[O][C@H]([C@H](O)CO)[C@@H]1O (some centres undefined) [stibogluconate] + c1cc(-c2cnn3cc(-c4ccc(OCCN5CCCCC5)cc4)cnc23)ccn1 [Dorsomorphin] (first compound 2 µM, partner dose 0.4 µM) | 138 | 111 | 106 |
| Nc1ccn([C@@H]2O[C@H](CO)[C@@H](O)C2(F)F)c(=O)n1 [gemcitabine] + Oc1nc(-c2ccc(C(F)(F)F)cc2)nc2c1CSCC2 [XAV939] (first compound 0.0004 µM, partner dose 2 µM) | 125 | 101 | 153 |

Source: the supplement of paper PMC4604168 (melanoma cell lines)
